# Laboratory results taken from the supplement of paper PMC11006884.
# Amino acid sequences for entries named in this document (tags omitted). A change or cut given only in a name is not applied to a line headed by its entry.
# UniProt Q8TAT6: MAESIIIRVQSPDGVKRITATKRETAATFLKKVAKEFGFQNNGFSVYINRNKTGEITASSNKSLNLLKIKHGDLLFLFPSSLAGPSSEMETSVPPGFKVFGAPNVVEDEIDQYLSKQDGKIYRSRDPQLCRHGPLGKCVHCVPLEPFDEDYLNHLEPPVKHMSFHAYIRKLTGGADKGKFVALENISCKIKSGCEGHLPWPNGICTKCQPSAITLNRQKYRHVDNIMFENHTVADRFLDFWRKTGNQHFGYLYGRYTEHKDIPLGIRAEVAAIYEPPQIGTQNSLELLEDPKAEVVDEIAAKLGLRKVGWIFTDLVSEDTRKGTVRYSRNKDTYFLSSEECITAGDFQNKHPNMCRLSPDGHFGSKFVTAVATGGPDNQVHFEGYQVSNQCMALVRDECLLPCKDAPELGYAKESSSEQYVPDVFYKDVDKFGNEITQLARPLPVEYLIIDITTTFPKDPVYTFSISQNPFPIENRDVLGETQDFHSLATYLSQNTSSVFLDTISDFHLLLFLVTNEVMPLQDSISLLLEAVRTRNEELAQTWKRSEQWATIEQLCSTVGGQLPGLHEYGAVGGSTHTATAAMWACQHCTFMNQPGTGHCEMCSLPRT
# UniProt Q8TEX9: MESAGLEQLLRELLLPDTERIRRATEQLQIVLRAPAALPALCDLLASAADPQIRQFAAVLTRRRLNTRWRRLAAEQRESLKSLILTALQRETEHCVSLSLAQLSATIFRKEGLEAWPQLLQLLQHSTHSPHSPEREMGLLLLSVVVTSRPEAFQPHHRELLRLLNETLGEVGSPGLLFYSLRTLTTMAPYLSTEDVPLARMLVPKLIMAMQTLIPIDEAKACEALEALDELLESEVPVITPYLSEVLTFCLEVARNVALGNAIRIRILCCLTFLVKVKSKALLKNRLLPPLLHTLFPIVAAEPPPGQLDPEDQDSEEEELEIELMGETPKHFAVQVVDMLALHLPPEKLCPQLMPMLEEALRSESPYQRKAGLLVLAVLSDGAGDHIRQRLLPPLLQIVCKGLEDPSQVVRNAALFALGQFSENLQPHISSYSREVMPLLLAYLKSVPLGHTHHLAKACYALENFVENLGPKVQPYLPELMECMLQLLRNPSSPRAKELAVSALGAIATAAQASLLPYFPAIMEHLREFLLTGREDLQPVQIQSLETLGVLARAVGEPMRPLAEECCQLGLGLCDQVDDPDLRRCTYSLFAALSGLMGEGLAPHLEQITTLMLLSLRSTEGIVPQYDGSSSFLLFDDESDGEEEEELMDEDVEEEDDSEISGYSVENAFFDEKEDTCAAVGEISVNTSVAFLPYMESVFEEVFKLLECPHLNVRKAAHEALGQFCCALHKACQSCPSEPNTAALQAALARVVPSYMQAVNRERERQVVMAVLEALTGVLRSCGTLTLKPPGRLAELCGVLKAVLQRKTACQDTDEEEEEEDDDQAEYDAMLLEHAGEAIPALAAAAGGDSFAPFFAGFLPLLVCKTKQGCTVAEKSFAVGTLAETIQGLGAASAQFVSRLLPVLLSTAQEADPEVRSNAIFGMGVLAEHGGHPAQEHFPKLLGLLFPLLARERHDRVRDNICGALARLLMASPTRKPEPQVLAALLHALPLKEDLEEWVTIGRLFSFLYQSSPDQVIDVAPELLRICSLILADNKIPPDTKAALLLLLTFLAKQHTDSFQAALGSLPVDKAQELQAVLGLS
# UniProt Q8NDD1: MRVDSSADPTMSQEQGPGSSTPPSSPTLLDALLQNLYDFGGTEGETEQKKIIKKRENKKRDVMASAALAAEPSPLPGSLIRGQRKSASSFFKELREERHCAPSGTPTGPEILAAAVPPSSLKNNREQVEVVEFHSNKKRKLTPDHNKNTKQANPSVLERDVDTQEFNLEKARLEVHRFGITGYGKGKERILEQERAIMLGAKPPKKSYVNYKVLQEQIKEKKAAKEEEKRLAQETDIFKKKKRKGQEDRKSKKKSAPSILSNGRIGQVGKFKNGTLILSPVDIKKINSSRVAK
# UniProt Q8WVJ2: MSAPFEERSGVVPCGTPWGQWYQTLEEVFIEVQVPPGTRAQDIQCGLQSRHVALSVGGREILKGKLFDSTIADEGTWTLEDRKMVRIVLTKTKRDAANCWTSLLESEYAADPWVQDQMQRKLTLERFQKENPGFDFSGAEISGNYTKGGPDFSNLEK
# UniProt Q8IZV5: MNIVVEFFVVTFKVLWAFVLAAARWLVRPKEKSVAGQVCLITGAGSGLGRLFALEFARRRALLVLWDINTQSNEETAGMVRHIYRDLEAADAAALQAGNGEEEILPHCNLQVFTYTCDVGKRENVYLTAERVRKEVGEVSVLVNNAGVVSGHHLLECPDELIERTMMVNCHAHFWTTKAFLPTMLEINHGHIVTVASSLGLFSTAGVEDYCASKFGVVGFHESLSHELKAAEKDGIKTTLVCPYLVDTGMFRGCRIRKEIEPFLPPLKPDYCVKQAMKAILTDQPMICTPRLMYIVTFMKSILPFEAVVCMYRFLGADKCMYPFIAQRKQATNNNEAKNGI
# UniProt Q8NC96: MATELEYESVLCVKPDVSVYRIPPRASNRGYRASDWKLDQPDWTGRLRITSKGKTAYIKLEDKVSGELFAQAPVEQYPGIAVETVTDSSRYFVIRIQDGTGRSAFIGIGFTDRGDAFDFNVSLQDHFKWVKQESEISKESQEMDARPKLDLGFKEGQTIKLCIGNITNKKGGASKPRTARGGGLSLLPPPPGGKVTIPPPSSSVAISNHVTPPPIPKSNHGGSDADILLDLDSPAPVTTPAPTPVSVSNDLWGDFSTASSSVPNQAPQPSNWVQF
# UniProt Q8N163, whole entry, looked up: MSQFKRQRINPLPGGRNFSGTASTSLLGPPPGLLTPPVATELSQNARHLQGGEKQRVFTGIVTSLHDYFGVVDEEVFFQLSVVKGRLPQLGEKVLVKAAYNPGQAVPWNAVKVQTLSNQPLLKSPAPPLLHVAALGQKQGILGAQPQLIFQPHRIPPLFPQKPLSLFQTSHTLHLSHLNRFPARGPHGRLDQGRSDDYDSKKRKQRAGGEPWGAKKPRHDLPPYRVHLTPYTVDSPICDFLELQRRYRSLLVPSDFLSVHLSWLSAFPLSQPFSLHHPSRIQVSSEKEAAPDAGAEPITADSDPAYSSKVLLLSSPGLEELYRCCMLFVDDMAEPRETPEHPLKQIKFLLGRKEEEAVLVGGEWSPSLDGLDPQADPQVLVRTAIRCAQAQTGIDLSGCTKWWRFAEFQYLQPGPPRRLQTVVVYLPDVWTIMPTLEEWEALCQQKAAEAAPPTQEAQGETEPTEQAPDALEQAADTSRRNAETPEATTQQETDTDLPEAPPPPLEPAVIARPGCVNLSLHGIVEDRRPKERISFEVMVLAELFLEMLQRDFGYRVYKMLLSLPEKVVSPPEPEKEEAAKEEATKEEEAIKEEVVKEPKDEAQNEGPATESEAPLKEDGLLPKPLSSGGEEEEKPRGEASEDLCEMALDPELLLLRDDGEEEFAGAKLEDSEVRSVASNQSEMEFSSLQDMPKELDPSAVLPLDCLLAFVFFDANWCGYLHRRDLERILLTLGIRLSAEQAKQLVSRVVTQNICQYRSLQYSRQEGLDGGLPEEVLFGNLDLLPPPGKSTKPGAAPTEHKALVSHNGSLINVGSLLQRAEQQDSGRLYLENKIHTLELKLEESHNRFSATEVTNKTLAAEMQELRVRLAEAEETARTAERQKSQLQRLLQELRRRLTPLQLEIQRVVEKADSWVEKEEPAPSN
# UniProt Q8WUA4: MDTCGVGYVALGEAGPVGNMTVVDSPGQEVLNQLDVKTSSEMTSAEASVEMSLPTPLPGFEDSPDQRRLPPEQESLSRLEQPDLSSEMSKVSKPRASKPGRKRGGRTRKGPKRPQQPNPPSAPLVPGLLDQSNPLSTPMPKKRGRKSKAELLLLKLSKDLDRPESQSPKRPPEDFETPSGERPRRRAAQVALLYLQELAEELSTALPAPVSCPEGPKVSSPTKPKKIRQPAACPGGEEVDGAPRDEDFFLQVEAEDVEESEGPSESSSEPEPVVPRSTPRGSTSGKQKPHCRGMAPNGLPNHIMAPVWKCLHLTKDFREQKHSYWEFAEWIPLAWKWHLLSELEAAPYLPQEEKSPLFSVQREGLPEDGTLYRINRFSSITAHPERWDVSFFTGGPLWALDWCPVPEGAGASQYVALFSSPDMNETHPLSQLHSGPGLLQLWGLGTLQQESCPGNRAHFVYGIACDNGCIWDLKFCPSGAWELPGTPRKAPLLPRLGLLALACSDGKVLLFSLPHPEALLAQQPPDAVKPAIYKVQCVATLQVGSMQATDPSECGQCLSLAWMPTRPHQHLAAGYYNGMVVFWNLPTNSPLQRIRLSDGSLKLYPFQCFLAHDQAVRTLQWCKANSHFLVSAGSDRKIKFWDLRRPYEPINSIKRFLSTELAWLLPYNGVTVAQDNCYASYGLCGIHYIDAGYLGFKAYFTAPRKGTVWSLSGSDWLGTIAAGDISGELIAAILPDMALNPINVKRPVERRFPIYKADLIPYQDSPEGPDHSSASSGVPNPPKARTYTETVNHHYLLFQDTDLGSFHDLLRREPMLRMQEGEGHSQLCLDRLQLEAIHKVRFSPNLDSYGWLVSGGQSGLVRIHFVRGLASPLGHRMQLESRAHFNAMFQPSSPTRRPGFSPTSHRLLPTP
# UniProt Q8WY36: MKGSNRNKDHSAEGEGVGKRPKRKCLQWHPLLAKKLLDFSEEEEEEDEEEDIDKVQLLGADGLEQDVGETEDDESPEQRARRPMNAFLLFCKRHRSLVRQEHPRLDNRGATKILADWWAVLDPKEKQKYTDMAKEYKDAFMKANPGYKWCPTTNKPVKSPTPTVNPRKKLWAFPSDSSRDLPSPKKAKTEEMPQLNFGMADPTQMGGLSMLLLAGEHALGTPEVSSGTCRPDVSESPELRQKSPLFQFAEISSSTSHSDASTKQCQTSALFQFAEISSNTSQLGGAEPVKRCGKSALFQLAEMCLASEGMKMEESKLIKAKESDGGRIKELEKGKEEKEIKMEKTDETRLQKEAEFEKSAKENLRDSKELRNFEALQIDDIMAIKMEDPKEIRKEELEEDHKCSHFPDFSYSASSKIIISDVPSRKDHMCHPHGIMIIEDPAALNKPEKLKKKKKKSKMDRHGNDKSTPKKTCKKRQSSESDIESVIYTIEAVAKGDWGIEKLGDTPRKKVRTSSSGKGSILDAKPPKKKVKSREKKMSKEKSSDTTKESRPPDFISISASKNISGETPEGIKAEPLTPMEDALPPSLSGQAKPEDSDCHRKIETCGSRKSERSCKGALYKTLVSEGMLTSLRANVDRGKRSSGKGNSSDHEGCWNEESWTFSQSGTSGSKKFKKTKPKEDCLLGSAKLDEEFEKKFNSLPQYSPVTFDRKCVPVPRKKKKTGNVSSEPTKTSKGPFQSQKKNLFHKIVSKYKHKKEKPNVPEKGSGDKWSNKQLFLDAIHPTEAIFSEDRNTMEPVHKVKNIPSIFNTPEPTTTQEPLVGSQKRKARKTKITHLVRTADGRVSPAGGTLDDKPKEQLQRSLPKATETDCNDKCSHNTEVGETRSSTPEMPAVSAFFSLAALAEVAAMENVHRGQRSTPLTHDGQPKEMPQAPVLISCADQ
# UniProt Q8N8A6: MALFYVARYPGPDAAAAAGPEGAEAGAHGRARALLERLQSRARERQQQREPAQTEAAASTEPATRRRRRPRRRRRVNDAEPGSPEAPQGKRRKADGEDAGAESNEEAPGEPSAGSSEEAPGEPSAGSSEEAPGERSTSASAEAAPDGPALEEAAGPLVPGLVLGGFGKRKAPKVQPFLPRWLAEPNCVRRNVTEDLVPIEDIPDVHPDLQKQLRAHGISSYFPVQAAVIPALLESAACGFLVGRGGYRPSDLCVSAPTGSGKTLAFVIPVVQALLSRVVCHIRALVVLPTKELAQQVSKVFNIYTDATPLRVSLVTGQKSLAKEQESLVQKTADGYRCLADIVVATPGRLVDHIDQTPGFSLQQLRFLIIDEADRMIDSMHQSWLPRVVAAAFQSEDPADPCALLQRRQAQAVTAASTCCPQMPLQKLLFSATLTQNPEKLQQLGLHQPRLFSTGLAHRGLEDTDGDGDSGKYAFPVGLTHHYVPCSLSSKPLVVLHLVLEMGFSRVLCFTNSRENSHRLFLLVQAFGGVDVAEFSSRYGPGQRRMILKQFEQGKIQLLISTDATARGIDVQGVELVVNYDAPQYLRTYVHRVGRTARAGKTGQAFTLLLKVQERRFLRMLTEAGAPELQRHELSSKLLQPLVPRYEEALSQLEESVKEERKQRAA
# UniProt Q8WWH5: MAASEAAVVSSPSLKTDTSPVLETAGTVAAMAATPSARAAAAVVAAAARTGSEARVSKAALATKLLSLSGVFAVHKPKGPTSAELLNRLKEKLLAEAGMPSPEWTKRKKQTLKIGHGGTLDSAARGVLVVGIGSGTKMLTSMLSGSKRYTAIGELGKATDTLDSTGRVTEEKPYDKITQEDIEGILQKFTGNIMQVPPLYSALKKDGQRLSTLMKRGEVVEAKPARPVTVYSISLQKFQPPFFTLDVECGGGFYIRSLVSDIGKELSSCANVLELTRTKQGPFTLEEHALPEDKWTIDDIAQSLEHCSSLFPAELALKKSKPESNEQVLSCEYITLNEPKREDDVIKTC
# The list shows a part of the results, in another mix than the full data.
# Compound: COC(=O)C#Cc1ccccc1 [methyl 3-phenylpropiolate]
# Assay: log2 ratio of iodoacetamide-alkyne labeling of the cysteine site, DMSO over compound (competition); higher = stronger covalent engagement of the cysteine by the compound, active = 1 or more
# Conditions: 500 µM; treatment time 1 h; system: HEK293T cell lysate
# In short: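 After 1 h at ambient temperature with vehicle or electrophile (500 µM), HEK293T lysate (2 mg/mL) was labelled for 1 h with iodoacetamide alkyne and clicked to sCIP-TMT reagents. Pooled samples were trypsin-digested overnight at 37 °C, streptavidin-enriched, acid-eluted and analysed by Orbitrap Eclipse LC-MS/MS with FAIMS, then quantified in FragPipe over three replicates with duplicate channels. A cysteine's log2 competition ratio is its mean control-channel over mean compound-channel reporter intensity. Cysteines quantified in only one replicate were not included.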
row,Target,log2 ratio of iodoacetamide-alkyne labeling
1,UniProt Q8N0X7_C405,inactive: 0.452
2,NEK9 C25 (UniProt Q8TD19),active: 1.21
3,UniProt Q8TEJ3_C103,inactive: 0.0491
4,NPLOC4 C208 (UniProt Q8TAT6),inactive: -0.0596
5,IPO4 C95 (UniProt Q8TEX9),inactive: 0.618
6,DDX54 C73 (UniProt Q8TDD1),inactive: 0.301
7,PHIP C612 (UniProt Q8WWQ0),inactive: -0.25
8,IPO4 C42 (UniProt Q8TEX9),inactive: -0.0119
9,C1orf131 C100 (UniProt Q8NDD1),inactive: 0.391
10,UniProt Q8WZ64_C1635,inactive: 0.472
11,NUDCD2 C99 (UniProt Q8WVJ2),inactive: 0.231
12,LRRC47 C190 (UniProt Q8N1G4),inactive: 0.324
13,RDH10 C272 (UniProt Q8IZV5),inactive: 0.324
14,SETD7 C200 (UniProt Q8WTS6),inactive: 0.34
15,SPATA5 C318 (UniProt Q8NB90),inactive: 0.288
16,IPO4 C400 (UniProt Q8TEX9),inactive: 0.365
17,ATRIP C74 (UniProt Q8WXE1),inactive: 0.563
18,DNAJB14 C192 (UniProt Q8TBM8),inactive: 0.0368
19,NECAP1 C162 (UniProt Q8NC96),inactive: 0.89

row,Target,log2 ratio of iodoacetamide-alkyne labeling
1,UniProt Q8N163_C644,inactive: 0.00523
2,UniProt Q8NBJ5_C412,inactive: 0.133
3,UniProt Q8N8U9_C189,inactive: 0.276
4,ZCCHC7 C524 (UniProt Q8N3Z6),inactive: 0.124
5,GTF3C2 C608 (UniProt Q8WUA4),inactive: 0.147
6,SMAP2 C196 (UniProt Q8WU79),inactive: 0.318
7,UniProt Q8WYQ9_C159,inactive: 0.271
8,PHIP C130 (UniProt Q8WWQ0),inactive: 0.375
9,CMAS C422 (UniProt Q8NFW8),inactive: 0.375
10,DNAJB14 C77 (UniProt Q8TBM8),active: 1.08
11,BBX C599 (UniProt Q8WY36),inactive: 0.284
12,MPP5 C366 (UniProt Q8N3R9),inactive: 0.615
13,UniProt Q8N0X7_C272,inactive: 0.213
14,LRRC47 C450 (UniProt Q8N1G4),inactive: -0.269
15,DDX51 C238 (UniProt Q8N8A6),inactive: 0.0717
16,TRUB1 C331 (UniProt Q8WWH5),inactive: 0.531
17,UniProt Q8NEB9_C336,inactive: 0.145
18,THOC2 C1064 (UniProt Q8NI27),inactive: 0.483

# Fetched one by one from above (2):
row,Target,log2 ratio of iodoacetamide-alkyne labeling
18,THOC2 C1064 (UniProt Q8NI27),inactive: 0.483
5,GTF3C2 C608 (UniProt Q8WUA4),inactive: 0.147
